{"source": "PubChem BioAssay AID1347423", "about": "(Functional Genomics Laboratory (NCATS/FGL), 2020)", "note": "About 210 (0.4%) of roughly 52,000 sequences were called active.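 How the source made its calls: active means gene whose silencing raises cell survival under the drug, median off-target-corrected z-score across its silencing RNAs 2 or more; inactive means the rest.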 Some of the results follow."}
{"assay": "Resistance to Poly (ADP-Ribose) Polymerase inhibitor: Gene Identification via Genome-wide siRNA Screen", "settings": "mouse BRCA2 R2336H ES cells, olaparib, CellTiter-Glo viability; stronger effect = higher value", "outline": "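Mouse BRCA2 R2336H ES cells were reverse-transfected with siRNA (20 nM final), treated at 48 h with 500 nM olaparib, and read by CellTiter-Glo after 72 h. Scores: MAD-based z per siRNA, median per gene, seed off-target correction.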"}
{"sequence": "GGCUUGUUAAUGAAUGCACTT against Ankrd9", "z-score": "inactive: 0.954"}
{"sequence": "GGUGUACCAGCAAACUUUUTT against Nhlh2", "z-score": "inactive: -0.782"}
{"sequence": "GGUGCUAAAGUCAAAAAACTT against Fras1", "z-score": "inactive: 1.58"}
{"sequence": "GCUUAAAGUGCAUCGCCAATT against Stc1", "z-score": "inactive: 0.964"}
{"sequence": "GGAUGAUACAUGUUUGAAUTT against V1ra1", "z-score": "inactive: -0.128"}
{"sequence": "GCAGUGUAUUGGUAAUCAATT against Olfr630", "z-score": "inactive: 0.454"}
{"sequence": "GGUACUCAAGGUUCAGACCTT against Tcfe3", "z-score": "inactive: 0.285"}
{"sequence": "GGUCUACCACUUCAACUUCTT against Sema7a", "z-score": "inactive: 1.19"}
{"sequence": "GGUCUACCCAUGACCUACUTT against Nme4", "z-score": "inactive: -1.13"}
{"sequence": "GCAAUGAACUAUGAAGGCATT against Npm1", "z-score": "active: 0.811"}
{"sequence": "GGACCUGUCCAUCUUCAUCTT against Scn1b", "z-score": "inactive: 2.1"}
{"sequence": "CCUUUGAAUCCCAGGUUCATT against Lmo1", "z-score": "inactive: 1.16"}
{"sequence": "CCAGUAUGCACAAAUUUAATT against Ube1c", "z-score": "inactive: 0.19"}
{"sequence": "AAAUUCUGCCUGACGAGAUTT against Scgb3a1", "z-score": "inactive: 2.05"}
{"sequence": "GGUGAGAACUCAGAUAAGCTT against Txk", "z-score": "inactive: 0.279"}
{"sequence": "CGACCUGAAAUCUCAAGUUTT against Clecsf1", "z-score": "inactive: 0.834"}
{"sequence": "GGAUGUGAAGAUCUAUCUUTT against Itm2c", "z-score": "inactive: -0.29"}
{"sequence": "GGCAAUCCCAUAGAGGCUGTT against Smcr7", "z-score": "inactive: -0.874"}
{"sequence": "GUUGUAAUUGGUUAUGUGCTT against Dscr5", "z-score": "inactive: 1.65"}
{"sequence": "GCAAUCUCCAACAAACUCUTT against Gemin7", "z-score": "inactive: 0.0463"}
{"sequence": "GGCAGAAUCCAGCUCAGUUTT against BC038286", "z-score": "inactive: -1.27"}
{"sequence": "GGAGGGAAGCGAGAGUUUUTT against Emilin2", "z-score": "inactive: 0.588"}
{"sequence": "GGAACUUUGUUAAAAUGGATT against 4932414N04Rik", "z-score": "inactive: 0.31"}
{"sequence": "GGAUGGACCUUCAGAAAAGTT against 1500001A10Rik", "z-score": "inactive: -2.16"}
{"sequence": "GGAAGACAGGCAUAAAAAATT against A230035L05Rik", "z-score": "inactive: 0.713"}
{"sequence": "GGUGAAGAAAGCACUGUUUTT against Olfr980", "z-score": "inactive: 0.273"}
{"sequence": "GGAGCGAGAAGCUUUAGAATT against D19Ertd721e", "z-score": "inactive: -0.0343"}
{"sequence": "GGCAACUGGAAAUCUGGGATT against Adar", "z-score": "inactive: 0.456"}
{"sequence": "GAAGAUGCCACGCUAAAAATT against Adam34", "z-score": "inactive: 2.14"}
{"sequence": "CGGAAACAAUGCAAUGGCATT against Bcl11a", "z-score": "inactive: 1.04"}
{"sequence": "GCAACGAGUGUGUUUUCUGTT against A230091H23", "z-score": "inactive: 0.423"}
{"sequence": "GCACACUCUGUUAUAAAAUTT against Osbpl2", "z-score": "inactive: 0.537"}
{"sequence": "GGAAAAUGGAAUUUGGUCCTT against Il12b", "z-score": "inactive: 0.829"}
{"sequence": "GGAAAGGUGACCAAGAACUTT against Igsf4b", "z-score": "inactive: 4.26"}
{"sequence": "AAUAACACGUCAGUUUAUCTT against A530064D06Rik", "z-score": "inactive: 3.34"}
{"sequence": "GGCUUUUCUUACAAAGCAATT against 1300010K09Rik", "z-score": "inactive: 0.109"}
{"sequence": "GGACACUUUCCAAUGGUGATT against 9330128H10Rik", "z-score": "inactive: 0.993"}
{"sequence": "GGUAGAGAAACCUAGUGUUTT against Mtap6", "z-score": "inactive: -1.07"}
{"sequence": "GGGUGACCUUUACGUCUUCTT against D6Ertd253e", "z-score": "inactive: -0.477"}
{"sequence": "CUACUAUAGUGUAAUGGUGTT against Psg18", "z-score": "inactive: 0.695"}
{"sequence": "CGACUCAAUUUCUGUGGCCTT against Olfr525", "z-score": "inactive: 0.952"}
{"sequence": "CGCCUUUAGUAAGGAUCACTT against Tube1", "z-score": "inactive: 0.365"}
{"sequence": "GGUGUUCAAAAGUGGACUUTT against Pnck", "z-score": "inactive: -0.745"}
{"sequence": "GGACCUACAGCUGUGUGUUTT against Rgmc", "z-score": "inactive: -0.942"}
{"sequence": "GGAAACAGAGACUGAAUUUTT against 5730509K17Rik", "z-score": "inactive: 1.25"}
{"sequence": "GGACGUGCAGGAAAUGCAUTT against Alas1", "z-score": "inactive: 0.673"}
{"sequence": "GGAGUCCUGUAAAUGCAAUTT against Pcaf", "z-score": "inactive: 1.5"}
{"sequence": "GGCACUUACUUCUGAGAAGTT against A230106M15Rik", "z-score": "inactive: -0.679"}
{"sequence": "CCCUAAGUCUCUAAUUGACTT against LOC271048", "z-score": "inactive: 0.515"}
{"sequence": "GGACAGCUCUCUUUAGUCUTT against Erf", "z-score": "inactive: 1.22"}
{"sequence": "GGCCAUCAUUGAGGAAUAUTT against Eif4g1", "z-score": "inactive: -1.69"}
{"sequence": "GGAUGCUUGUGGACCUGUGTT against Olfr1123", "z-score": "inactive: -0.285"}
{"sequence": "GGAGCUUACAUGGUCCCUATT against 1700016G05Rik", "z-score": "inactive: -1.73"}
{"sequence": "GGAGGAAGGCUUCCUAAAGTT against Slc25a27", "z-score": "inactive: 0.459"}
{"sequence": "GGAACAACAUUGUUCUAAATT against Fstl5", "z-score": "inactive: -0.151"}
{"sequence": "GCAUGUGAAAUCUAGAUCATT against Cks1", "z-score": "inactive: 0.231"}
{"sequence": "GGAUCGCUUAGUCUCAUGATT against 1110054O05Rik", "z-score": "inactive: 2.34"}
{"sequence": "GCCAAUUUGGAUAUUCAUGTT against 4921517N04Rik", "z-score": "inactive: 0.872"}
{"sequence": "GGCCUUUGUGUAUAUCUAUTT against V1rj3", "z-score": "inactive: -0.799"}
{"sequence": "CCAAGCACGCACCAAGAUCTT against BC023296", "z-score": "inactive: -0.77"}
{"sequence": "GCUCUGGAGGAAAAAAAUATT against Olfr1255", "z-score": "inactive: -1.22"}
{"sequence": "GGUGGAGAAGAGUUUCUGCTT against Gpr132", "z-score": "inactive: 0.778"}
{"sequence": "GCUGGAAUGUAACUGUUUCTT against 2010110O04Rik", "z-score": "inactive: 2.15"}
{"sequence": "CAGGGCAAGGUGAUAUCUGTT against Olfr1411", "z-score": "inactive: 0.0573"}
{"sequence": "ACCUUUUCAAAUCUGUGCGTT against Urp", "z-score": "inactive: 0.1"}
{"sequence": "GGCAAAAGACACUGUCAAUTT against Birc1c", "z-score": "inactive: 1.09"}
{"sequence": "GGAACUGCUUACGAAAUACTT against Lama4", "z-score": "inactive: -0.374"}
